According to PubChem BioAssay AID720504 (National Center for Advancing Translational Sciences (NCATS), 2013):
Hit rate of the full screen: of about 360,000 compounds, about 10,000 (2.8%) were called active. Inconclusive results, whose numbers are uncertain, are shown with a selection of clear calls. Calls come from the whole dose curve; as a rule, active = well fitted inhibition curve with a large enough effect; inconclusive = small, poorly fitted or top-dose-only effect; inactive = flat fitted curve, though single readings scatter. Where the call is inconclusive, the potency comes from a doubtful curve fit.
% is set by controls: 0 for no effect and ±100 for the full control effect; potency is the fitted concentration of half-maximal effect.
Note: nearly all actives have a fitted effect of over 65% in size.
Throughout, for max response, negative = inhibition: series mostly up to about 57 µM.

Chains of the proteins cited; added tags and fusions are not shown.
UniProt P53350, whole entry, looked up: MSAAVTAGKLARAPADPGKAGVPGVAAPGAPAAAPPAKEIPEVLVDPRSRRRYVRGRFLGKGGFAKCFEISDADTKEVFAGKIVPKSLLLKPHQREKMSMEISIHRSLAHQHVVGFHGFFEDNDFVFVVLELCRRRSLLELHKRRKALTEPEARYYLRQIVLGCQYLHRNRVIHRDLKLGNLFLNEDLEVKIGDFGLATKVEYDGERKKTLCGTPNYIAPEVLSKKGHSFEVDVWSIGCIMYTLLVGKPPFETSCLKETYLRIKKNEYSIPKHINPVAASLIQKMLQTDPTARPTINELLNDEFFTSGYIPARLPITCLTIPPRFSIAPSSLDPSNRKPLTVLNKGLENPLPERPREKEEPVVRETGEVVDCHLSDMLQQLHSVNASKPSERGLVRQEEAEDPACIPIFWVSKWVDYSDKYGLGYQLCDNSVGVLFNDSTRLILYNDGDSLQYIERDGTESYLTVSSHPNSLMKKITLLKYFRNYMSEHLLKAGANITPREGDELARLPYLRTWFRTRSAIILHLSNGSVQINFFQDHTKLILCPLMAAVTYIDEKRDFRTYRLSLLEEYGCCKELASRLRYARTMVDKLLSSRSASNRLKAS

The compounds below were run against Serine/threonine-protein kinase PLK1 (Homo sapiens) (UniProt P53350) (assay: qHTS for Inhibitors of PLK1-PDB (polo-like kinase 1 - polo-box domain): Primary Screen). Conditions: Plk1 PBD binding of FITC phosphopeptide, fluorescence polarization.
In the case of `CCOP(=O)(Cc1cc(C(C)=O)c(C)o1)OCC`, the Potency is reported as inconclusive: 23.8 µM [inhibitor, single point].
For `Cc1cccc(N2C(=O)/C(=C/c3ccc(CN(CCC#N)S(C)(=O)=O)o3)C(=O)NC2=S)c1`, the Potency was active: 7.52 µM.
In the case of `CC(C)C(=O)NC(Oc1ccccc1Cl)C(Cl)(Cl)Cl` (stereo not drawn), the Potency is reported as inconclusive: 26.7 µM [inhibitor, partial curve].
For `CC(=O)N1N=C(c2cccnc2)CC1c1ccccc1O` (stereo not drawn), the max response, negative = inhibition was inactive: -10.6%.
`Cc1cc(C=C2C(=O)NC(=S)NC2=O)c(C)n1C1CCCC1` was tested, and the Potency was inconclusive: 3.36 µM [inhibitor, full curve].
With `CCOP(=O)(CCP(=O)(OCC)OCC)OCC.C[CH2][Sn]([Cl])([Cl])[CH2]C` the Potency was active: 8.44 µM.
For `C[N+](C)(C)CCOC(=O)CBr`, the max response, negative = inhibition was inactive: -17.8%.
With `O=c1[nH]c(O)c(/C=C2\C=NN=C2c2ccccc2)c(=O)[nH]1` the Potency was active: 3.55 µM.
In the case of `COC(=O)C1=C(c2ccc(F)cc2OCc2ccccc2)C[C@@H]2CC[C@H]1N2C(=O)NCCCc1ccccc1`, the max response, negative = inhibition is reported as inactive: 0.958%.
For `CCOC(=O)[C@@]12C(=O)C(=O)N[C@]1(c1ccccc1)C1OCCCC12` (stereo partly drawn), the Potency was inconclusive: 8.44 µM [inhibitor, partial curve].
`COc1cc2c(C(=O)O)c(C)n(C)c2cc1Br` was tested, and the max response, negative = inhibition was inactive: -7.48%.
In the case of `Clc1ccc2[nH]c3c(c2c1)CCNC3`, the max response, negative = inhibition is reported as inactive: -5.44%.
In the case of `CCOC(=O)c1sc2ccccc2c1NC(=O)c1coc2ccccc2c1=O`, the Potency is reported as inconclusive: 1.06 µM [inhibitor, full curve].
With `CN1CC=C2C(C#N)=C(N)C(C#N)(C#N)C(c3ccncc3)C2C1` (stereo not drawn) the Potency was inconclusive: 29.9 µM [inhibitor, partial curve].
In the case of `CCOC(=O)C1(c2ccccc2)Oc2ccccc2C(c2ccc(OC)cc2)=C1C(=O)OC` (stereo not drawn), the Potency is reported as inconclusive: 42.3 µM [inhibitor, partial curve, poor fit].
`Cc1ccc(/C=C2/C(=O)NC(=O)N(CCc3ccc(F)cc3)C2=O)s1` was tested, and the Potency was active: 0.947 µM.
For `Cc1ccc(-n2c(O)c(C=NCc3ccccn3)c(=O)[nH]c2=S)cc1`, the max response, negative = inhibition was inactive: -5.11%.
`CC(=O)N1CN(C(C)=O)CN(C(C)=O)C1` was tested, and the Potency was inconclusive: 29.9 µM [inhibitor, partial curve].
For `COc1cc(/C=N/NP(=S)(c2ccccc2)c2ccccc2)ccc1O`, the Potency was inconclusive: 23.8 µM [inhibitor, single point].
In the case of `CCOC(=O)[C@]1(C#N)[C@@H]2C=CC(C(C)=O)=CN2[C@@H](C(N)=O)[C@@H]1c1ccsc1`, the Potency is reported as inconclusive: 26.7 µM [inhibitor, partial curve].
With `O=C1CC(=O)N(c2ccc3c(c2)OCO3)C(=O)N1` the Potency was inconclusive: 29.9 µM [inhibitor, partial curve].
With `Cc1cc(N2C(=O)C3CCCN3C2c2ccc(Cl)c(Cl)c2)no1` (stereo not drawn) the Potency was inconclusive: 29.9 µM [inhibitor, single point].
In the case of `O=C(COc1ccc(S(=O)(=O)N2CCCCC2)cc1)N1CCN(Cc2ccccc2)CC1`, the max response, negative = inhibition is reported as inactive: -6.83%.
For `CC(C)C[C@H]1C(=O)N2CCC[C@H]2[C@]2(O)O[C@](NC(=O)[C@@H]3C=C4c5cccc6[nH]cc(c56)C[C@H]4N(C)C3)(C(C)C)C(=O)N12`, the Potency was inconclusive: 29.9 µM [inhibitor, partial curve].
With `COc1ccc(OC)c(NC(=O)C2C(C(=O)O)C3(Cl)C(Cl)=C(Cl)C2(Cl)C3(Cl)Cl)c1` (stereo not drawn) the Potency was inconclusive: 26.7 µM [inhibitor, partial curve].
With `CC1=Nc2ccccc2/C1=C/c1c(O)[nH]c(=O)[nH]c1=O` the Potency was inconclusive: 29.9 µM [inhibitor, single point].
With `CC1=CC2/C=C(\C)CCC(O)C(O)/C=C/C(=O)C23C(=O)NC(CC(C)C)C3C1C` (stereo not drawn) the Potency was inconclusive: 18.9 µM [inhibitor, partial curve].
With `O=c1[nH]c(=O)n(-c2ccccc2)c(O)c1/C=C1/C(c2ccccc2)=Nc2ccccc21` the Potency was active: 10.6 µM.
With `CC(=NCCCN1CCOCC1)c1c(O)n(Cc2ccccc2)c(=O)[nH]c1=O` the max response, negative = inhibition was inactive: -3.11%.
For `COCCN1C(=O)NC(=O)/C(=C\c2ccc(F)cc2)C1=O`, the Potency was active: 13.4 µM.
`CC(=O)c1ccc2c(c1)C1C(Cl)C(Sc3ccccc3[N+](=O)[O-])CC1C(c1ccccc1)N2` (stereo not drawn) was tested, and the Potency was active: 15 µM.
For `CCOC(=O)c1[nH]c2ccc(OC)cc2c1C(SCC(=O)O)c1ccc(C(F)(F)F)cc1` (stereo not drawn), the Potency was inconclusive: 37.7 µM [inhibitor, single point].
In the case of `Cn1c(O)c(/C=N/NC(=O)c2ccncc2)c(=O)[nH]c1=S`, the max response, negative = inhibition is reported as inactive: 4.22%.
In the case of `O=C1NC(=O)C(=Cc2ccc(N3CCOCC3)cc2)C(=O)N1`, the Potency is reported as active: 9.47 µM.
For `CC(C)(C)OC(=O)N(CCc1ccccc1)Cc1ccc(OCc2cccc(NC(=O)c3ccccc3)c2)cc1`, the Potency was inconclusive: 37.7 µM [inhibitor, single point].
In the case of `CCOC(C(=O)OCCCN(CC)CC)(c1ccccc1)c1ccccc1`, the max response, negative = inhibition is reported as inconclusive: -31.1% [inhibitor].
With `CCN(CC)c1ccc(N=Cc2c(O)n(-c3ccc(OC)cc3)c(=O)[nH]c2=O)cc1` the Potency was inconclusive: 37.7 µM [inhibitor, single point].
In the case of `O=C(CN1CC(c2ccccc2)CC1=O)Nc1cccc(F)c1` (stereo not drawn), the Potency is reported as inconclusive: 21.2 µM [inhibitor, partial curve].
`CCOP(=S)(OCC)SCC(=O)NC(C(=O)O)C(C)C` (stereo not drawn) was tested, and the max response, negative = inhibition was inactive: -3.2%.
In the case of `CCN(CC)c1ccc(/C=C2\C(=O)NC(=O)N(CC3CCCO3)C2=O)cc1` (stereo not drawn), the Potency is reported as inconclusive: 2.38 µM [inhibitor, full curve, poor fit].
`O=C(O)CNC1c2ccccc2CSc2ccccc21` (stereo not drawn) was tested, and the Potency was inconclusive: 23.8 µM [inhibitor, partial curve].
With `COCCCNC(=O)Cn1cc(/C=C2\C(=O)NC(=O)N(c3ccccc3F)C2=O)c2ccccc21` the Potency was inconclusive: 2.67 µM [inhibitor, full curve, poor fit].
With `O=Nc1c(-c2ccccc2)n(O)[n+]([O-])c1-c1ccccc1` the Potency was inconclusive: 26.7 µM [inhibitor, single point].
